Hit rate of the full screen: of about 31,000 sequences, about 1,400 (4.5%) were called active.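 Rule for the calls: active = median seed-adjusted z-score above 1 or below -1; inactive = the rest.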 The list shows a part of the results.

This test is described as follows: Novel Modifiers of Survival Motor Neuron (SMN) Protein: Gene Identification via Genome-wide siRNA Screen.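 Note: luminescence tracks full-length SMN protein made from the SMN2 reporter.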 The settings on record: HEK293T SMN2-luciferase reporter, siRNA knockdown, 72 h; actives lie on both sides. An outline of the steps:
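Genome-wide siRNA screen (10418 genes, 3 siRNAs each, 1 pmol per well) by reverse transfection in HEK293T cells stably carrying an SMN2-luciferase reporter; luminescence after 72 hours, normalized to negative-control siRNA, log10-transformed, MAD-scored.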
GCAUCCACCAAGCCUAUCATT against PROM2: the median seed-adjusted z-score was inactive: 0.188.

For GGAGGACCCUUCAGCUAAATT against DNAI2, the median seed-adjusted z-score is inactive: 0.12.

Regarding GCAAUUCAGUGCUUGGAGATT against SGTB, the median seed-adjusted z-score is inactive: -0.0165.

Turning to GAGCAUUCCUAGAUAACAATT against TAF5L, the median seed-adjusted z-score is inactive: 0.409.

Take CGAAAGUCCUCACCAACAATT against TSHZ1: the median seed-adjusted z-score is inactive: 0.526.

GCUUCUUCGAGAAACAGAATT against RBMY1F: the median seed-adjusted z-score is inactive: 0.2.

On to ACAAGGUCCUGGGAUAUUUTT against ACCN3, for which the median seed-adjusted z-score was inactive: -0.114.

Consider GCUCUGUACAGACUGCUAUTT against FHL2, for which the median seed-adjusted z-score is inactive: 0.475.

Regarding GCUCUACCUCUUUUUCAAATT against HM13, the median seed-adjusted z-score is inactive: 0.134.

In the case of GGAGAUAAGGUUCGACUUATT against AIM2, the median seed-adjusted z-score was inactive: 0.0646.

With GGCUAUCAGGCAUUUCGAATT against LEPREL1, the median seed-adjusted z-score is inactive: 0.0654.

Take CAGAGACUGUUAUCCAUUUTT against SLC25A36: the median seed-adjusted z-score was inactive: 0.134.

Consider CUGUGAUGUUGCUAAAGAATT against CBR4, for which the median seed-adjusted z-score was inactive: -0.66.

Regarding GGAACCCUUUGAUCAAUUUTT against ADAMTS7, the median seed-adjusted z-score is inactive: 0.146.

As to CUAUUGAAAAGGUCUUAGATT against CHD2, the median seed-adjusted z-score was inactive: 0.422.

For GCAUCAAUGUACCUCCACATT against ETV4, the median seed-adjusted z-score is inactive: -0.186.

Consider GGCAGUGAAUGGUCUGUAUTT against PDIA6, for which the median seed-adjusted z-score was inactive: -0.269.

As to CCACAAGUCUGAUUGGUCUTT against SPRY3, the median seed-adjusted z-score was inactive: -0.126.

With GAUCCAGACAAAAAGAAUUTT against PRSS35, the median seed-adjusted z-score is inactive: -0.0119.

On to GCAGUGCUAUUCCCAGUAATT against ITGA5, for which the median seed-adjusted z-score was inactive: 0.915.

In the case of ACUGCAAUCUGUUGCCCAATT against CLIC5, the median seed-adjusted z-score is inactive: 0.

Regarding CAACAAAAGUUUCAUGCUATT against STK35, the median seed-adjusted z-score is inactive: 0.519.

For the sequence CACUGAACUUCUACACCAATT against ADAMTS9, the median seed-adjusted z-score was inactive: 0.103.

On to GCUUGAUGCUGUAUCGGAATT against MSH3, for which the median seed-adjusted z-score is inactive: 0.428.

Consider AAUACAAACUUGUAAAUCATT against ZIC4, for which the median seed-adjusted z-score is inactive: 0.512.

As to CAGAUGCUCUGAAUCAUCATT against DCLK2, the median seed-adjusted z-score is inactive: -0.552.

GGAUCCUACUGGUAAAACUTT against NUDT5: the median seed-adjusted z-score is inactive: 0.228.

On to GCCUCUACAUCUAGUGAUATT against JMJD1C, for which the median seed-adjusted z-score is inactive: 0.0338.

On to GAGUCAUGAUCUCAGCUUUTT against KRTAP9-3, for which the median seed-adjusted z-score was inactive: -0.184.

On to CAGUUCUGACUUAUAGUGATT against SNAI3, for which the median seed-adjusted z-score is inactive: -0.195.

As to CGUCUGGAUCGAGUACUAUTT against CACNG1, the median seed-adjusted z-score is inactive: -0.452.

On to CGAGCAAUCGAGAUCUACATT against NAPA, for which the median seed-adjusted z-score was inactive: -0.563.

With CAGUGUAUGUCAAACAUAATT against AP3M2, the median seed-adjusted z-score is inactive: 0.327.

As to GGAUCUGACAGACAAUGAUTT against ABCC3, the median seed-adjusted z-score was inactive: -0.549.

Take GGAAACAUGGUUAAUCUAUTT against KCNN3: the median seed-adjusted z-score was inactive: -0.625.

In the case of GGAACGAGGCAGAUAUGGATT against NMNAT2, the median seed-adjusted z-score was active: -1.58.

Take GGACCAUAGAUGUUACCGATT against DHX30: the median seed-adjusted z-score was inactive: 0.335.

CGCUGACCGCAUGCAGAAATT against ACTA1: the median seed-adjusted z-score is inactive: -0.103.

For the sequence CAGCUAUACAGGAAUUAUUTT against SLC25A16, the median seed-adjusted z-score is inactive: 0.0479.

As for GCUUCUAUAUUCAUGCUAATT against DDX6, the median seed-adjusted z-score is active: 1.12.

Take GCUAUGGUGCUGUCGCUUATT against RHOXF2: the median seed-adjusted z-score is inactive: -0.331.

Turning to AAACUUUUGGGAAACAGUATT against RAB28, the median seed-adjusted z-score was inactive: 0.114.

Consider GAACGAAGGUUUCUUGGUUTT against B3GNT1, for which the median seed-adjusted z-score is inactive: 0.0931.

With GCUCAGAAGCAGUAAUGCATT against PQBP1, the median seed-adjusted z-score was active: -1.12.

Take GUAGUUCAGUUGCUCGAGATT against ATP6V0A4: the median seed-adjusted z-score was inactive: -0.141.

As for GAAUGUGCCAAGUGUAAGATT against SIRT6, the median seed-adjusted z-score is inactive: 0.0126.

On to GCUGCUUCGUGGAAGACCATT against TMPRSS3, for which the median seed-adjusted z-score was inactive: -0.554.

As for CCAAAUACAUCGCAUUAGATT against GTPBP4, the median seed-adjusted z-score was active: 1.01.

With CAAAGGCGAUAACAUCUAUTT against UBE2E1, the median seed-adjusted z-score was inactive: 0.888.

On to GACGAGUUCUUUAUGCUUATT against MGST3, for which the median seed-adjusted z-score is inactive: -0.0509.

On to GAGAAGAUCCUAAAUGAGATT against PLK3, for which the median seed-adjusted z-score was inactive: -0.116.

As for CAAGGUCAUUAAUAAGGAUTT against CST5, the median seed-adjusted z-score was inactive: 0.466.

GAACGGCUACGAAAAUCCATT against APP: the median seed-adjusted z-score was inactive: 0.0204.

Regarding GGAGCUCCAUGGGAUAGAATT against PSMB9, the median seed-adjusted z-score is inactive: -0.788.

In the case of GACUUCCAGAUGUUACAAATT against NMT2, the median seed-adjusted z-score is inactive: 0.494.

For the sequence CAAACUAUCUCUGAAAAUATT against TRYX3, the median seed-adjusted z-score was active: 2.3.

As to GGACUGAUUGGACUCCCAUTT against TNFRSF11A, the median seed-adjusted z-score was inactive: -0.0833.

In the case of GGAGUACCACUUUAUCUCATT against MPP1, the median seed-adjusted z-score was inactive: -0.0762.

For the sequence GGACCAACUUCUACGCAGATT against AARS2, the median seed-adjusted z-score is inactive: -0.52.

With GGUAUUCCGCUGGAAAGUATT against NFIA, the median seed-adjusted z-score was inactive: -0.268.

Take CCAUCUAUCGCAACGACAATT against RAB3A: the median seed-adjusted z-score was inactive: -0.0787.

For CCAAGGUGGUGUUCAUUGATT against NFATC4, the median seed-adjusted z-score is inactive: 0.

Regarding GAGAAUUUUAUAGACCGUATT against HS3ST2, the median seed-adjusted z-score was inactive: 0.133.

As to GGAUCUUCAAAGUCACGAATT against CACNA1B, the median seed-adjusted z-score is inactive: 0.0963.

Turning to GGGUCCUCUUGGAACUCAATT against TPBG, the median seed-adjusted z-score was inactive: -0.128.

For CAAGUUCCUUGGAAAUAAATT against LPCAT3, the median seed-adjusted z-score was inactive: -0.388.

With GGGUCAAGAUCGAGGAUAATT against MYOM3, the median seed-adjusted z-score is inactive: -0.012.

On to GCAGGAAAGAGAUCGAAGATT against RANBP1, for which the median seed-adjusted z-score is inactive: 0.545.

On to GAAUGAUGCGUGAUCGUGATT against G3BP2, for which the median seed-adjusted z-score is inactive: -0.336.

For CACCUACGAUAGCUACUAUTT against NKTR, the median seed-adjusted z-score was active: -1.1.

Consider AGAACCUGCUUCUCAAGAATT against STAT6, for which the median seed-adjusted z-score is inactive: 0.28.

As for CGGUCUAACCUCUAUCGGATT against PPT2, the median seed-adjusted z-score was inactive: 0.0334.

Consider GGCAAAACUGUUCCGAUUUTT against RANBP1, for which the median seed-adjusted z-score is inactive: 0.545.

As to GGAAUAAGGUAAUUGAACATT against MAPK10, the median seed-adjusted z-score is inactive: -0.0114.

For CUACAUUGAUUACUGUUUATT against ZMYND17, the median seed-adjusted z-score is inactive: -0.00314.

Consider GGAAGUAUUUGACUCGGCUTT against RHOV, for which the median seed-adjusted z-score was inactive: -0.326.

In the case of GAAUCCAAGUGCAUUUCUUTT against TPSG1, the median seed-adjusted z-score is inactive: 0.

Turning to AGCUGGAGGUCAACAAGUATT against TIMP3, the median seed-adjusted z-score was active: -1.05.

Take GAAUGACUGAGAACUAUUUTT against RBM38: the median seed-adjusted z-score was inactive: 0.0358.

On to GUCAGUUGUUAGAACAUAATT against TRIM24, for which the median seed-adjusted z-score was inactive: -0.22.

Regarding GCGGAUUUCUGAGUCCGAATT against HMX3, the median seed-adjusted z-score is inactive: 0.238.

Regarding GCAACUGCAGGUUAUCUGATT against GRK7, the median seed-adjusted z-score is inactive: 0.288.

Regarding CCCUCCUACCUGUACAUAATT against MAP3K8, the median seed-adjusted z-score was inactive: -0.533.

On to CCAAGACUGUGACACCAAATT against SCUBE3, for which the median seed-adjusted z-score is inactive: 0.152.

Consider UCAAGAUGCUUCAUUCAUATT against NEUROG1, for which the median seed-adjusted z-score is inactive: 0.485.

GCCGCACAAGUGAACCUCATT against CR1L: the median seed-adjusted z-score was inactive: -0.038.

In the case of GCACCUACUUCAUCUAUAGTT against EDA, the median seed-adjusted z-score was inactive: 0.316.

Turning to GGCGUGACAAGAUCAAUGATT against USP19, the median seed-adjusted z-score is inactive: 0.47.

In the case of GGAGCACAGGUAAGGCUAATT against HSPA6, the median seed-adjusted z-score is inactive: 0.364.

For UCAUCUUCAUGACCUACAATT against SLC31A1, the median seed-adjusted z-score is inactive: 0.

With CUGCGGCUGUUGAACCUGATT against FBXL6, the median seed-adjusted z-score was inactive: -0.182.

With GUACCAGACUUCACCAUUATT against MPI, the median seed-adjusted z-score was inactive: -0.526.

On to GCACAUCUCUGAUGUGGAATT against CARHSP1, for which the median seed-adjusted z-score was inactive: 0.384.

GCUGUUUUAUUGUCCAGCATT against PAAF1: the median seed-adjusted z-score is inactive: -0.422.

In the case of GGACAAUUCUUUGACCUAATT against PPP3CC, the median seed-adjusted z-score was inactive: 0.271.

Turning to GCCGUGACCUACUUCAUCATT against SLC29A4, the median seed-adjusted z-score is inactive: 0.0192.

Turning to AGUUCUACUUUGACAGGGATT against KCNF1, the median seed-adjusted z-score is inactive: -0.19.

With GGAGCACGUACAAUACAGATT against FAR2, the median seed-adjusted z-score was inactive: 0.0328.

In the case of ACCUCUACGUGGUCAGCUATT against DPP9, the median seed-adjusted z-score is inactive: -0.224.

GCAUGAUCUUUCGAAGGGATT against CSNK2A2: the median seed-adjusted z-score is inactive: -0.155.

Regarding GACUCAUCGUGAUGAGAUUTT against SLC7A9, the median seed-adjusted z-score was inactive: 0.194.

Regarding ACUUCUGCCUGAAUACCCATT against DHFRL1, the median seed-adjusted z-score was inactive: -0.646.

For GAUAUUUGAUUGAUGUAGATT against DUSP11, the median seed-adjusted z-score was inactive: -0.0184.

Consider CCUCCAUGGCGGACAAGAATT against GPR157, for which the median seed-adjusted z-score was inactive: 0.152.

Take GAGAGUUUAUGGUCAAGGUTT against SGPL1: the median seed-adjusted z-score was inactive: 0.139.

In the case of GGACCGGUGGAUUCCUUAATT against ZNF775, the median seed-adjusted z-score was inactive: 0.00364.

GCUCGGAAAAUUUAAGAUUTT against RGS7: the median seed-adjusted z-score was inactive: 0.415.

For the origin of these results see PubChem BioAssay AID1347426 (Functional Genomics Laboratory (NCATS/FGL), 2020).
